The record followed here is ChEMBL document CHEMBL5674883, “The Heterochromatin Landscape in Migrating Cells and the Importance of H3K27me3 for Associated Transcriptome Alterations” (Cells, 2018).

Chains of the proteins cited; added tags and fusions are not shown.
UniProt Q61188, whole entry: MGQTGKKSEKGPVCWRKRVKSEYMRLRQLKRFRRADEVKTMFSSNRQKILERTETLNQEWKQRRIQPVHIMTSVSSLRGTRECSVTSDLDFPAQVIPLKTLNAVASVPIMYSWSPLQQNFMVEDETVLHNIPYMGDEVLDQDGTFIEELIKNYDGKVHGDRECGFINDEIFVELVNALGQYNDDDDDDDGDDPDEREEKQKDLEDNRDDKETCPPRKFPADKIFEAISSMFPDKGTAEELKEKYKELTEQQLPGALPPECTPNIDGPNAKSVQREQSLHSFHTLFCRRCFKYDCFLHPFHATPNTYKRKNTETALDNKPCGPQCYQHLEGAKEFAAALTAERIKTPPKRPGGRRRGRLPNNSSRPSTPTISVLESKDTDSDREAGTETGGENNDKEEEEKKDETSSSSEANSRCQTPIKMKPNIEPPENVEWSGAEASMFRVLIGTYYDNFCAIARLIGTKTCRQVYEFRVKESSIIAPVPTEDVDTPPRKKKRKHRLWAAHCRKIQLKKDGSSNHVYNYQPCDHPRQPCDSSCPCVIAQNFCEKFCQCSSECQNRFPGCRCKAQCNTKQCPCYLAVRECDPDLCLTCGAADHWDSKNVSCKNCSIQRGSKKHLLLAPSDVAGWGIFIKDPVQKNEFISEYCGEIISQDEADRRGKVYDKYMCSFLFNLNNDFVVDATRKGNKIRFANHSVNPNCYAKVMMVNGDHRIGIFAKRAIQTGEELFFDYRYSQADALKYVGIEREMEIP

SMILES strings stand for the structures. The source gives many values for each of these; only a part stands here.

Holding throughout (format): cell-based
Assay [1] concerns the target T1, RNA polymerase II (Mus musculus) (UniProt P08775+Q8CFI7+P97760+A0A3Q4L2S8+Q80UW8+P61219+P62488+Q923G2+P60898+O08740+Q63871+P62876). As to the kind of experiment: Inhibition of RNA polymerase II in mouse B16-F1 migrating cells assessed as fold change in Rdm1-RNA stability at 0.1 mM measured by ChIP-seq analysis relative to control cells.
Assay [2] concerns the target T1, RNA polymerase II (Mus musculus). As to the kind of experiment: Inhibition of RNA polymerase II in mouse B16-F1 migrating cells assessed as fold change in Eif3f-RNA stability at 0.1 mM measured by ChIP-seq analysis relative to control cells.
The target is the same in assay [3]. As to the kind of experiment: Inhibition of RNA polymerase II in mouse B16-F1 migrating cells assessed as fold change in Grina-RNA stability at 0.1 mM measured by ChIP-seq analysis relative to control cells.
The target is the same in assay [4]. As to the kind of experiment: Inhibition of RNA polymerase II in mouse B16-F1 migrating cells assessed as fold change in Itga5-RNA stability at 0.1 mM measured by ChIP-seq analysis relative to control cells.
For assay [5] the target is unchanged. As to the kind of experiment: Inhibition of RNA polymerase II in mouse B16-F1 migrating cells assessed as fold change in Lmf1-RNA stability at 0.1 mM measured by ChIP-seq analysis relative to control cells.
The target is the same in assay [6]. As to the kind of experiment: Inhibition of RNA polymerase II in mouse B16-F1 migrating cells assessed as fold change in Rpl7a-RNA stability at 0.1 mM measured by ChIP-seq analysis relative to control cells.
The target is the same in assay [7]. As to the kind of experiment: Inhibition of RNA polymerase II in mouse B16-F1 migrating cells assessed as fold change in Phldb2-RNA stability at 0.1 mM measured by ChIP-seq analysis relative to control cells.
For assay [8] the target is unchanged. As to the kind of experiment: Inhibition of RNA polymerase II in mouse B16-F1 migrating cells assessed as fold change in Hat1-RNA stability at 0.1 mM measured by ChIP-seq analysis relative to control cells.
For assay [9] the target is unchanged. As to the kind of experiment: Inhibition of RNA polymerase II in mouse B16-F1 migrating cells assessed as fold change in Qpct-RNA stability at 0.1 mM measured by ChIP-seq analysis relative to control cells.
The target is the same in assay [10]. As to the kind of experiment: Inhibition of RNA polymerase II in mouse B16-F1 migrating cells assessed as fold change in Nucks1-RNA stability at 0.1 mM measured by ChIP-seq analysis relative to control cells.
Assay [11] shares this target. As to the kind of experiment: Inhibition of RNA polymerase II in mouse B16-F1 migrating cells assessed as fold change in Hsp90b1-RNA stability at 0.1 mM measured by ChIP-seq analysis relative to control cells.
The target is the same in assay [12]. As to the kind of experiment: Inhibition of RNA polymerase II in mouse B16-F1 migrating cells assessed as fold change in Adam9-RNA stability at 0.1 mM measured by ChIP-seq analysis relative to control cells.
Assay [13] has the same target. As to the kind of experiment: Inhibition of RNA polymerase II in mouse B16-F1 migrating cells assessed as fold change in Cenpq-RNA stability at 0.1 mM measured by ChIP-seq analysis relative to control cells.
The target is the same in assay [14]. As to the kind of experiment: Inhibition of RNA polymerase II in mouse B16-F1 migrating cells assessed as fold change in Ipo7-RNA stability at 0.1 mM measured by ChIP-seq analysis relative to control cells.
The target is the same in assay [15]. As to the kind of experiment: Inhibition of RNA polymerase II in mouse B16-F1 migrating cells assessed as fold change in Shoc2-RNA stability at 0.1 mM measured by ChIP-seq analysis relative to control cells.
Assay [16] has the same target. As to the kind of experiment: Inhibition of RNA polymerase II in mouse B16-F1 migrating cells assessed as fold change in Ptbp3-RNA stability at 0.1 mM measured by ChIP-seq analysis relative to control cells.
Assay [17] has the same target. As to the kind of experiment: Inhibition of RNA polymerase II in mouse B16-F1 migrating cells assessed as fold change in Sltm-RNA stability at 0.1 mM measured by ChIP-seq analysis relative to control cells.
Assay [18] shares this target. As to the kind of experiment: Inhibition of RNA polymerase II in mouse B16-F1 migrating cells assessed as fold change in Atad2-RNA stability at 0.1 mM measured by ChIP-seq analysis relative to control cells.
In assay [19] the target is Histone-lysine N-methyltransferase EZH2 (Mus musculus) (UniProt Q61188). As to the kind of experiment: Inhibition of EZH2 in mouse B16-F1 migrating cells assessed as fold change in H3K27me3-dependent regulated Sphk1-mRNA expression at 3 uM measured by ChIP-seq analysis relative to control cells.
Assay [20] has the same target. As to the kind of experiment: Inhibition of EZH2 in mouse B16-F1 migrating cells assessed as fold change in H3K27me3-independent regulated Hmox1-mRNA expression at 3 uM measured by ChIP-seq analysis relative to control cells.
For assay [21] the target is unchanged. As to the kind of experiment: Inhibition of EZH2 in mouse B16-F1 migrating cells assessed as fold change in H3K27me3-buffered regulated Ell2-mRNA expression at 3 uM measured by ChIP-seq analysis relative to control cells.
The target is the same in assay [22]. As to the kind of experiment: Inhibition of EZH2 in mouse B16-F1 migrating cells assessed as fold change in H3K27me3-buffered regulated Chchd10-mRNA expression at 3 uM measured by ChIP-seq analysis relative to control cells.
Assay [23] shares this target. As to the kind of experiment: Inhibition of EZH2 in mouse B16-F1 migrating cells assessed as fold change in H3K27me3-buffered regulated Nceh1-mRNA expression at 3 uM measured by ChIP-seq analysis relative to control cells.
For assay [24] the target is unchanged. As to the kind of experiment: Inhibition of EZH2 in mouse B16-F1 migrating cells assessed as fold change in H3K27me3-buffered regulated Pink1-mRNA expression at 3 uM measured by ChIP-seq analysis relative to control cells.
For assay [25] the target is unchanged. As to the kind of experiment: Inhibition of EZH2 in mouse B16-F1 migrating cells assessed as fold change in H3K27me3-buffered regulated Supt20-mRNA expression at 3 uM measured by ChIP-seq analysis relative to control cells.
Assay [26] shares this target. As to the kind of experiment: Inhibition of EZH2 in mouse B16-F1 migrating cells assessed as fold change in H3K27me3-buffered regulated Tbkbp1-mRNA expression at 3 uM measured by ChIP-seq analysis relative to control cells.
The target is the same in assay [27]. As to the kind of experiment: Inhibition of EZH2 in mouse B16-F1 migrating cells assessed as fold change in H3K27me3-buffered regulated Rock1-mRNA expression at 3 uM measured by ChIP-seq analysis relative to control cells.
Assay [28] shares this target. As to the kind of experiment: Inhibition of EZH2 in mouse B16-F1 migrating cells assessed as fold change in H3K27me3-buffered regulated Zbtb26-mRNA expression at 3 uM measured by ChIP-seq analysis relative to control cells.
For assay [29] the target is unchanged. As to the kind of experiment: Inhibition of EZH2 in mouse B16-F1 migrating cells assessed as fold change in H3K27me3-buffered regulated 2810403A07Rik-mRNA expression at 3 uM measured by ChIP-seq analysis relative to control cells.
The target is the same in assay [30]. As to the kind of experiment: Inhibition of EZH2 in mouse B16-F1 migrating cells assessed as fold change in H3K27me3-buffered regulated Map3k8-mRNA expression at 3 uM measured by ChIP-seq analysis relative to control cells.

For the compound `OC[C@H]1O[C@@H](n2cnc3cc(Cl)c(Cl)cc32)[C@H](O)[C@@H]1O`, the log2FC stood at 0.67 in assay [1]; 0.6 in assay [2]; 0.56 in assay [3]; 0.51 in [4]; 0.39 in assay [5]; 0.38 in [6]. Also, the log2FC is -0.51 in assay [7]; -0.53 in assay [8]; -0.58 in assay [9]; -0.58 in [10]; -0.62 in assay [11]; -0.62 in [12]. For the same compound, the log2FC in assay [13] was -0.63; in [14], -0.66; in assay [15], -0.7; in [16] it was -0.79; in [17], -0.86; in assay [18], -0.97.
With `CCCc1cc(C)[nH]c(=O)c1CNC(=O)c1cc(-c2ccnc(N3CCN(C)CC3)c2)cc2c1cnn2C(C)C`, the log2FC in [19] turned out to be 0.33; in [20], 0.71; in [21] it was 0.49; in assay [22] it was 0.46; in [23], 0.39; in assay [24], 0.38. For the same compound, the log2FC in assay [25] is -0.4; in [26], -0.43; in [27], -0.45; in assay [28], -0.48; in assay [29], -0.52; in [30], -1.37.
